# Reference: the supplement of paper PMC11732987, “Enantioselective OTUD7B fragment discovery through chemoproteomics screening and high-throughput optimisation” (Communications Chemistry, 2025)
# Chains of the proteins cited; added tags and fusions are not shown. Lines headed by an entry give the natural chain unless they say otherwise; changes in a name come on top. Residues count along the entry.
# UniProt Q9NUQ3: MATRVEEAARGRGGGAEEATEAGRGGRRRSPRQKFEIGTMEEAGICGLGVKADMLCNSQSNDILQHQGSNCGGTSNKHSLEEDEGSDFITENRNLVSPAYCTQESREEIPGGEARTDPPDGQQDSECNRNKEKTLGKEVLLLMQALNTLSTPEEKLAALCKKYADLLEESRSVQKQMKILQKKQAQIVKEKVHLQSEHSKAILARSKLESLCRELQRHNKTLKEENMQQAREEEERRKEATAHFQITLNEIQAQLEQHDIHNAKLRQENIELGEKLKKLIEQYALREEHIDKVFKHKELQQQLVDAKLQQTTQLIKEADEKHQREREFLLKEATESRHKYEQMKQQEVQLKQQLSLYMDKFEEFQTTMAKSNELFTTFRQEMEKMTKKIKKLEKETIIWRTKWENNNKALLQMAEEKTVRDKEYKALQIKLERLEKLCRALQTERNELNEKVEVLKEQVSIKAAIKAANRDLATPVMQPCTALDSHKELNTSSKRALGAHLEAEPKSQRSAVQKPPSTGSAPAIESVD
# UniProt Q9Y4A5, whole entry, looked up: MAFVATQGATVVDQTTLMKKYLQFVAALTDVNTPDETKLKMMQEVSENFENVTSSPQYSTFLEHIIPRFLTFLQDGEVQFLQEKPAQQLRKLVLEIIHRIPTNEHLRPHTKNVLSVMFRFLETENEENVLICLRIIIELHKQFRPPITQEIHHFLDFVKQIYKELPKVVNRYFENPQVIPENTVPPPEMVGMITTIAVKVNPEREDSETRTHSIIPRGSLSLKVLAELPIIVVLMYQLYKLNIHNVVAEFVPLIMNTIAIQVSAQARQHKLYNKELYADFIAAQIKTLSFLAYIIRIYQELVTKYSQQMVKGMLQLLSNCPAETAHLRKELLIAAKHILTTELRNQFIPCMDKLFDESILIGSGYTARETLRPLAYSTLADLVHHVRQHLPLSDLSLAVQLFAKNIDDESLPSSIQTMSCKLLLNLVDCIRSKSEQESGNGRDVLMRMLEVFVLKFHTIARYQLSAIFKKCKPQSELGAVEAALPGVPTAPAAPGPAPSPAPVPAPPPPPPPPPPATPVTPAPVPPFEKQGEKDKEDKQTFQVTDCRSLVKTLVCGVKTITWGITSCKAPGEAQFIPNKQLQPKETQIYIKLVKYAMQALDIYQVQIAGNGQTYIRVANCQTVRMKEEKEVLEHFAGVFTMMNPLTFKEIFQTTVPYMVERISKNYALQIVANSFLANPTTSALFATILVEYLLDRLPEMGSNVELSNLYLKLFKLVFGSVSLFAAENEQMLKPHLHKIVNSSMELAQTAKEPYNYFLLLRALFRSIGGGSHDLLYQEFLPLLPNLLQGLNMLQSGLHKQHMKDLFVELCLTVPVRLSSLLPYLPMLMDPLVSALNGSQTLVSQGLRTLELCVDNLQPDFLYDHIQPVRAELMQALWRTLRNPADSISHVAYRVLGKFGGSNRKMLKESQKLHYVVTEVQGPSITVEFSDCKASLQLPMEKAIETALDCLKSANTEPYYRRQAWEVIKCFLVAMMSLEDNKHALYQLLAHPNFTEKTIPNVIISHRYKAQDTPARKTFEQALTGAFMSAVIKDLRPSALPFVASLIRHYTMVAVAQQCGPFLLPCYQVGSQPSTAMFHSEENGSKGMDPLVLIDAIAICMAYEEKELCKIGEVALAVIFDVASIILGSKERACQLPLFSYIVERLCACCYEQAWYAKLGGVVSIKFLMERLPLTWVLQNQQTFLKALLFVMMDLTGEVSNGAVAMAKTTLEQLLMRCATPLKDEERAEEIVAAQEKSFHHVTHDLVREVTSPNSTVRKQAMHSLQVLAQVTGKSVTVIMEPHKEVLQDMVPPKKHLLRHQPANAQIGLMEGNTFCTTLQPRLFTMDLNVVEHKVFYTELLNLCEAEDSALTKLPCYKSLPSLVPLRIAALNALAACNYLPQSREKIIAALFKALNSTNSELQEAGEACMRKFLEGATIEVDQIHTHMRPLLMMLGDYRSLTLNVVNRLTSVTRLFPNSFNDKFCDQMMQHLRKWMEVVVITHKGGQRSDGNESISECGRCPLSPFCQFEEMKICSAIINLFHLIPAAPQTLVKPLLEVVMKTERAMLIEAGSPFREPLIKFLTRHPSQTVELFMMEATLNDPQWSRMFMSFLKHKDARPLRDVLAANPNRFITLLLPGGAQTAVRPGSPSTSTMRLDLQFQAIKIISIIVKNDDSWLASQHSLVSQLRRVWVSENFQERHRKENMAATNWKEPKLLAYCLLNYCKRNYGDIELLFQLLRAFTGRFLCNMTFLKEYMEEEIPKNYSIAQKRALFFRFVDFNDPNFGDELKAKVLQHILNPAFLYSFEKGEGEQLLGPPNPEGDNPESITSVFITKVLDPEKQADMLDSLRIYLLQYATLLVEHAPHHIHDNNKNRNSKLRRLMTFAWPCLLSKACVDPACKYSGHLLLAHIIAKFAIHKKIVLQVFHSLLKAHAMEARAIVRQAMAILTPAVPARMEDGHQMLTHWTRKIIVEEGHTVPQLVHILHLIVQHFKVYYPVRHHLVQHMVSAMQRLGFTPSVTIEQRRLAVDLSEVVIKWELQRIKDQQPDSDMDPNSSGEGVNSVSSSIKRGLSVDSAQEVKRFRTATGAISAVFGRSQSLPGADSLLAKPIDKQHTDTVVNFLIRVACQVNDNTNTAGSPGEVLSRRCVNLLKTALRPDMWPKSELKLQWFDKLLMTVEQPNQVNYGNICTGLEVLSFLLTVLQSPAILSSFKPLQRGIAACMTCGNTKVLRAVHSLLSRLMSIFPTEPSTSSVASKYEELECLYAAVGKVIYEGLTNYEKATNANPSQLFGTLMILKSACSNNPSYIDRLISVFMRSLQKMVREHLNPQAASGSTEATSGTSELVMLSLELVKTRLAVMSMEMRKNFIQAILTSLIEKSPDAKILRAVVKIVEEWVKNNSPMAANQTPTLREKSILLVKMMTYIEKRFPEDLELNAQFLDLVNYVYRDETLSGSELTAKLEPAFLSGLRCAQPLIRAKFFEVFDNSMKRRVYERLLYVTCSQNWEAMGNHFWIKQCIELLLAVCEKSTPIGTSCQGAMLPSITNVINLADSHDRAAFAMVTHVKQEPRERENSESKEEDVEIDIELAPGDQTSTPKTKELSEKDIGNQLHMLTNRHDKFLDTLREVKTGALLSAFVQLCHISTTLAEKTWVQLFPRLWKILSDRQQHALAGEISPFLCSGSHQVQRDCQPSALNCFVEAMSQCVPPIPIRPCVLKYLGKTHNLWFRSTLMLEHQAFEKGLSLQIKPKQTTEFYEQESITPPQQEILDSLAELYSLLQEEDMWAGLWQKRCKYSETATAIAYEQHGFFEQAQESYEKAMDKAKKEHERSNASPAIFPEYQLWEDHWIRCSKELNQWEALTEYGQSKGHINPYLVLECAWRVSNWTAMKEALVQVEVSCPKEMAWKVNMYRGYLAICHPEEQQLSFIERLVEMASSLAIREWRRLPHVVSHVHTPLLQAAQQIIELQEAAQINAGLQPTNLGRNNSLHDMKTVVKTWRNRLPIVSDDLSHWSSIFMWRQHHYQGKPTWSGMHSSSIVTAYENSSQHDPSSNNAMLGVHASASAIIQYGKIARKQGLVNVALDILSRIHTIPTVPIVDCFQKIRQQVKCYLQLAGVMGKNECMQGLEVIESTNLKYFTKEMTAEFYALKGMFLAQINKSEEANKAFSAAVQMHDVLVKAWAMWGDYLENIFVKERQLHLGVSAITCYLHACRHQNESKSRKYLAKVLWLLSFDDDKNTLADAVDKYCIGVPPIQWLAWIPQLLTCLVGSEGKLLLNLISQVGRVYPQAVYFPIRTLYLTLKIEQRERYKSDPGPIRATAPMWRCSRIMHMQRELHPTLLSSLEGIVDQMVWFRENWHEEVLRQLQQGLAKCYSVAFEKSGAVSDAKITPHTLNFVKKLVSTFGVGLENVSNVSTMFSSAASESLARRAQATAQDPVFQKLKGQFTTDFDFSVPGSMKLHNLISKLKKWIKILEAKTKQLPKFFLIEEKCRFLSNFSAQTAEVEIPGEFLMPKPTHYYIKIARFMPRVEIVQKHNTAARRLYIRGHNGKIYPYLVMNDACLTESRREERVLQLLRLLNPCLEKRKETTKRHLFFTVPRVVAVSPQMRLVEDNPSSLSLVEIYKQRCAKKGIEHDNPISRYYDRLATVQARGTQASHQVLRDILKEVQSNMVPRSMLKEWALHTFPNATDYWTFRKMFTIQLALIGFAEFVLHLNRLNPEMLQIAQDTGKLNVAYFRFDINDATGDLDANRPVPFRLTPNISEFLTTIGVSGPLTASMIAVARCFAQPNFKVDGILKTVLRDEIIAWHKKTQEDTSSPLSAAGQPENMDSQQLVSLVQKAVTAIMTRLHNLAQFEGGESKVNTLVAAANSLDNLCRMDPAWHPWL
# UniProt O14562, 2-51: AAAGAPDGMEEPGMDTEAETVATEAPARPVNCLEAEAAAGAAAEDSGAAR
# UniProt Q6ZT12: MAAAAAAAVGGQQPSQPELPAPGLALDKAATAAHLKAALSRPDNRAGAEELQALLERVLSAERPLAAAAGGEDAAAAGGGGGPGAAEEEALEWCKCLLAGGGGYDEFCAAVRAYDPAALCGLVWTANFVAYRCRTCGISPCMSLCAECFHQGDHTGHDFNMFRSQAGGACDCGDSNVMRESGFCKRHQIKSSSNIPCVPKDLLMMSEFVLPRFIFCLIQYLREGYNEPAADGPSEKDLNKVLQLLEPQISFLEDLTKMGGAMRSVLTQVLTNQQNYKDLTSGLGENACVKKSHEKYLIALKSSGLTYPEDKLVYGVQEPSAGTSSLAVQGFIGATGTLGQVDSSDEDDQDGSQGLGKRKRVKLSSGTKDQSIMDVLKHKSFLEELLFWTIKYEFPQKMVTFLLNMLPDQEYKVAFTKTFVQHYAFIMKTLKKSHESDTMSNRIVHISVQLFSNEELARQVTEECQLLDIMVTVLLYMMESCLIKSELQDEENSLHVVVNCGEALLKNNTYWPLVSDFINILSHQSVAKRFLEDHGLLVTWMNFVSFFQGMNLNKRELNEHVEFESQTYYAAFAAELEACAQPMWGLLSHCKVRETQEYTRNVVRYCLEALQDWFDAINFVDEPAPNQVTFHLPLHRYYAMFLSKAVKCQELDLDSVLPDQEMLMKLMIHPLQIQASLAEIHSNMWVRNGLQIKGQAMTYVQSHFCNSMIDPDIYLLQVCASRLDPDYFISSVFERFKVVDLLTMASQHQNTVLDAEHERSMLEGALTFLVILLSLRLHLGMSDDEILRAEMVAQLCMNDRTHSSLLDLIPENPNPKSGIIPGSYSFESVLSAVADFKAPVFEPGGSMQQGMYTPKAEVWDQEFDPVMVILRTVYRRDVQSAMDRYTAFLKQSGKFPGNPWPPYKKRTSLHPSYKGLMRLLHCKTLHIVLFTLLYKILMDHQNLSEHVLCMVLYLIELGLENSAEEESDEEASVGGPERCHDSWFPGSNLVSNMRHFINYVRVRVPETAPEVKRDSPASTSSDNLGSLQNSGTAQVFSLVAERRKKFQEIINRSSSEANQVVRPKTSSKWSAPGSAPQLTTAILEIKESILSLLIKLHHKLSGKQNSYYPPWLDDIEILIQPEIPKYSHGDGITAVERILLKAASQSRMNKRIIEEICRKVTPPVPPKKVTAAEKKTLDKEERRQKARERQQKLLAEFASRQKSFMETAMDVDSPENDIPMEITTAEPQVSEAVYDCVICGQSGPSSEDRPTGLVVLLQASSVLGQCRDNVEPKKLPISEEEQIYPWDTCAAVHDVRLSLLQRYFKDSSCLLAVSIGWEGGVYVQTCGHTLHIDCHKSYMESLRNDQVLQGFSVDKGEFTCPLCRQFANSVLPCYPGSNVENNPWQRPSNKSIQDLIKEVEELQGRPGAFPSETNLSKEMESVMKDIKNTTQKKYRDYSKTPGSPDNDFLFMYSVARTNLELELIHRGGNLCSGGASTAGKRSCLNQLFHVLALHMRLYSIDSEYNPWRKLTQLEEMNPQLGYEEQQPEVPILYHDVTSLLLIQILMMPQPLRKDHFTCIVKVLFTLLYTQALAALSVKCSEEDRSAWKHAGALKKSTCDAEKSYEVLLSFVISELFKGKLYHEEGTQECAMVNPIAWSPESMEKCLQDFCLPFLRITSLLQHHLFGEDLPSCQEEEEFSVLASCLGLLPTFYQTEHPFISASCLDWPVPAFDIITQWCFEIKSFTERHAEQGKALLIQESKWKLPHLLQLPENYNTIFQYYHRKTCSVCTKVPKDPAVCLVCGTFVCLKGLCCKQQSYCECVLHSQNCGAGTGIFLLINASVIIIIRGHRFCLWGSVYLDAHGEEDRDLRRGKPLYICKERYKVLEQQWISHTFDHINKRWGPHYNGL
# UniProt Q9Y5Z9, 21-40: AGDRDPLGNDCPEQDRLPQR
# UniProt Q15631: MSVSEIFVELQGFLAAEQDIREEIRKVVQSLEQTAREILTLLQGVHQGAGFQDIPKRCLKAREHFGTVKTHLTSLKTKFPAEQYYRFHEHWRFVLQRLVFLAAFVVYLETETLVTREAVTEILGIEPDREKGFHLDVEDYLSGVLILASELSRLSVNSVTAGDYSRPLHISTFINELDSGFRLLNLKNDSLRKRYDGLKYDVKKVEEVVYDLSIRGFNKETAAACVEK
# UniProt Q9UJK0, 205-226: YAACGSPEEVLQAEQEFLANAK
# Some of the results follow. The data scatter; read single values as rough.
# Compound: ClCC(=O)N[C@@H]1CCCc2ccccc12
# Assay: log2 mean competition ratio of IA-DTB cysteine labelling (DMSO/compound) (log2 ratio); higher = stronger cysteine engagement by compound
# Conditions: 50 µM; treatment time: 4 h; cell line lysate: HEK293T
# Protocol: (§1)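 IA-DTB competitive cysteine chemoproteomics in HEK293T RIPA lysate. Lysates were treated with compound 29 or 30 at 50 or 200 µM for 4 h, then IA-DTB (500 µM, 1 h), trypsin-digested, NeutrAvidin-enriched and analysed by diaPASEF. Competition ratio = intensity DMSO / intensity compound (n=4 treated, n=64 DMSO); binding: mean log2 CR ≥ 1 and p ≤ 0.05 plus QC filters. Target is the cysteine site.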
row,Target,log2 mean competition ratio
1,TUFM C127 (UniProt P49411),0.409
2,TTC39C C87 (UniProt Q8N584),0.105
3,TXLNG C480 (UniProt Q9NUQ3),0.0654
4,TRRAP C3347 (UniProt Q9Y4A5),0.347
5,TTC37 C1422 (UniProt Q6PGP7),-0.221
6,UAP1L1 C231 (UniProt Q3KQV9),-0.155
7,TRMT10A C37 (UniProt Q8TBZ6),-0.0933
8,TUT7 C911 (UniProt Q5VYS8),0.167
9,TRMT1L C730 (UniProt Q7Z2T5),-0.279
10,TSEN54 C277 (UniProt Q7Z6J9),0.146
11,UBFD1 C33 (UniProt O14562),-0.507
12,UBR1 C477 (UniProt Q8IWV7),-0.122
13,TTF2 C754 (UniProt Q9UNY4),-0.2
14,UBE2M C47,-0.126
15,UBR1 C251 (UniProt Q8IWV7),-0.451
16,TTC21B C914 (UniProt Q7Z4L5),0.019
17,U2AF2 C464,0.212
18,TTC27 C299 (UniProt Q6P3X3),-0.279
19,UBOX5 C99 (UniProt O94941),-0.0834

row,Target,log2 mean competition ratio
1,UBR2 C1360 (UniProt Q8IWV8),0.0105
2,UBR3 C288 (UniProt Q6ZT12),0.118
3,UBIAD1 C31 (UniProt Q9Y5Z9),-0.259
4,TSN C225 (UniProt Q15631),-0.0508
5,TUBB8B C12 (UniProt A6NNZ2),0.348
6,TRMT2A C538 (UniProt Q8IZ69),-0.482
7,TXNIP C49 (UniProt Q9H3M7),0.0492
8,TSPY9;TSPY2;TSPY3;TSPY4;TSPY8;TSPY10;TSPY1 C283;(C277);(C277);(C283);(C277);(C277);(C277),0.0428
9,TRUB2 C252 (UniProt O95900),-0.0443
10,UBQLN4 C29 (UniProt Q9NRR5),-0.233
11,TSR3 C208 (UniProt Q9UJK0),-0.268
12,TRMT13 C59 (UniProt Q9NUP7),-0.0999
13,TSFM C240 (UniProt P43897),0.249
14,TTLL12 C370,-0.00309
15,TUBGCP6 C995 (UniProt Q96RT7),-0.0189
16,UBE2I C43,0.34
17,UBN1 C765 (UniProt Q9NPG3),-0.145
18,UBR4 C2234 (UniProt Q5T4S7),-0.365
19,UBN1 C38 (UniProt Q9NPG3),0.172

# Same assay, conditions: 200 µM; treatment time: 4 h; cell line lysate: HEK293T
row,Target,log2 mean competition ratio
1,TUFM C127 (UniProt P49411),-0.177
2,TTC39C C87 (UniProt Q8N584),-0.277
3,TXLNG C480 (UniProt Q9NUQ3),-0.244
4,TRRAP C3347 (UniProt Q9Y4A5),0.0404
5,TTC37 C1422 (UniProt Q6PGP7),-0.0487
6,UAP1L1 C231 (UniProt Q3KQV9),-0.151
7,TRMT10A C37 (UniProt Q8TBZ6),-0.0595
8,TUT7 C911 (UniProt Q5VYS8),-0.147
9,TRMT1L C730 (UniProt Q7Z2T5),0.153
10,TSEN54 C277 (UniProt Q7Z6J9),0.113
11,UBFD1 C33 (UniProt O14562),-0.213
12,UBR1 C477 (UniProt Q8IWV7),-0.46
13,TTF2 C754 (UniProt Q9UNY4),-0.199
14,UBE2M C47,-0.357
15,UBR1 C251 (UniProt Q8IWV7),-0.145
16,TTC21B C914 (UniProt Q7Z4L5),0.0141
17,U2AF2 C464,-0.214
18,TTC27 C299 (UniProt Q6P3X3),0.182
19,UBOX5 C99 (UniProt O94941),-0.0121

row,Target,log2 mean competition ratio
1,UBR2 C1360 (UniProt Q8IWV8),0.163
2,UBR3 C288 (UniProt Q6ZT12),0.139
3,UBIAD1 C31 (UniProt Q9Y5Z9),0.183
4,TSN C225 (UniProt Q15631),-0.131
5,TUBB8B C12 (UniProt A6NNZ2),-0.0718
6,TRMT2A C538 (UniProt Q8IZ69),-0.265
7,TXNIP C49 (UniProt Q9H3M7),-0.122
8,TSPY9;TSPY2;TSPY3;TSPY4;TSPY8;TSPY10;TSPY1 C283;(C277);(C277);(C283);(C277);(C277);(C277),0.0674
9,TRUB2 C252 (UniProt O95900),0.0779
10,UBQLN4 C29 (UniProt Q9NRR5),0.194
11,TSR3 C208 (UniProt Q9UJK0),-0.154
12,TRMT13 C59 (UniProt Q9NUP7),-0.0569
13,TSFM C240 (UniProt P43897),-0.132
14,TTLL12 C370,-0.161
15,TUBGCP6 C995 (UniProt Q96RT7),0.495
16,UBE2I C43,-0.345
17,UBN1 C765 (UniProt Q9NPG3),-0.0557
18,UBR4 C2234 (UniProt Q5T4S7),-0.0889
19,UBN1 C38 (UniProt Q9NPG3),-0.312

# Compound: ClCC(=O)N[C@H]1CCCc2ccccc12
# Assay: as above
# Conditions: 50 µM; treatment time: 4 h; cell line lysate: HEK293T
# Protocol: as §1
row,Target,log2 mean competition ratio
1,TUFM C127 (UniProt P49411),0.45
2,TTC39C C87 (UniProt Q8N584),0.701
3,TXLNG C480 (UniProt Q9NUQ3),0.438
4,TRRAP C3347 (UniProt Q9Y4A5),0.321
5,TTC37 C1422 (UniProt Q6PGP7),0.128
6,UAP1L1 C231 (UniProt Q3KQV9),0.245
7,TRMT10A C37 (UniProt Q8TBZ6),-0.259
8,TUT7 C911 (UniProt Q5VYS8),-0.0727
9,TRMT1L C730 (UniProt Q7Z2T5),0.00346
10,TSEN54 C277 (UniProt Q7Z6J9),-0.096
11,UBFD1 C33 (UniProt O14562),0.156
12,UBR1 C477 (UniProt Q8IWV7),0.0706
13,TTF2 C754 (UniProt Q9UNY4),0.0925
14,UBE2M C47,-0.29
15,UBR1 C251 (UniProt Q8IWV7),-0.424
16,TTC21B C914 (UniProt Q7Z4L5),-0.231
17,U2AF2 C464,0.0374
18,TTC27 C299 (UniProt Q6P3X3),-0.586
19,UBOX5 C99 (UniProt O94941),0.0472

row,Target,log2 mean competition ratio
1,UBR2 C1360 (UniProt Q8IWV8),-0.355
2,UBR3 C288 (UniProt Q6ZT12),0.131
3,UBIAD1 C31 (UniProt Q9Y5Z9),-0.818
4,TSN C225 (UniProt Q15631),0.255
5,TUBB8B C12 (UniProt A6NNZ2),-0.164
6,TRMT2A C538 (UniProt Q8IZ69),-0.226
7,TXNIP C49 (UniProt Q9H3M7),0.511
8,TSPY9;TSPY2;TSPY3;TSPY4;TSPY8;TSPY10;TSPY1 C283;(C277);(C277);(C283);(C277);(C277);(C277),0.377
9,TRUB2 C252 (UniProt O95900),0.11
10,UBQLN4 C29 (UniProt Q9NRR5),0.259
11,TSR3 C208 (UniProt Q9UJK0),-0.353
12,TRMT13 C59 (UniProt Q9NUP7),0.321
13,TSFM C240 (UniProt P43897),0.285
14,TTLL12 C370,-0.051
15,TUBGCP6 C995 (UniProt Q96RT7),-0.178
16,UBE2I C43,0.709
17,UBN1 C765 (UniProt Q9NPG3),0.0639
18,UBR4 C2234 (UniProt Q5T4S7),0.0365
19,UBN1 C38 (UniProt Q9NPG3),-0.182
